Measurements published in article PMC6411202.
No constants are given. Whether binding was seen depends on the method and setting. Binding seen in cells or lysates may run through a third protein. Some entries that bind do so weakly or less than the wild type.

Amino acid sequences for entries named in this document (tags omitted).
UniProt Q92597: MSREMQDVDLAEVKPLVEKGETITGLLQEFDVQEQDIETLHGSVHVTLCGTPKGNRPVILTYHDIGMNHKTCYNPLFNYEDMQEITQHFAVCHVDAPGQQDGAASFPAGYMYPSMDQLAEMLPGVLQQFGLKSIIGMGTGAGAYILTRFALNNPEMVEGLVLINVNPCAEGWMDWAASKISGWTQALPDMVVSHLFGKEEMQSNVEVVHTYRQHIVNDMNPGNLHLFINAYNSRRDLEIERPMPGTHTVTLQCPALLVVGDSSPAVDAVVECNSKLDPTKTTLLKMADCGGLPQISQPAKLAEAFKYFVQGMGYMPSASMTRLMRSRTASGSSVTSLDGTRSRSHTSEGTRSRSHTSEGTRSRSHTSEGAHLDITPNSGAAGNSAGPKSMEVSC
UniProt P12004: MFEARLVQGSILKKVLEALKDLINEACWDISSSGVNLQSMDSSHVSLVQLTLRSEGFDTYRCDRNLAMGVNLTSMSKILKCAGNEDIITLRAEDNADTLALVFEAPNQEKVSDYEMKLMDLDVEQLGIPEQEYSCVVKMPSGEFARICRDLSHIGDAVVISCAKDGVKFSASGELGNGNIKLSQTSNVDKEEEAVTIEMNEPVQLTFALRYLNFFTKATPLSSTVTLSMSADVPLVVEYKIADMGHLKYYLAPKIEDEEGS

Tests used:
[1] = biological target: Strep-Flag-tagged NDRG1, transfected in HEK293T cells (human (cDNA from HEK293T)) (UniProt Q92597); test: co-IP; HEK293T transfected with Strep-Flag-NDRG1 and pcDNA3.1-PCNA (Fig 5C), or with these and HA-LANA (Fig 6C); M2-Flag beads; RIPA buffer (50 mM Tris-HCl pH 7.4, 150 mM NaCl, 0.5% Triton X-100); western blot
[2] = biological target: GST-fused full-length NDRG1 (1-394 aa) (human (cDNA from HEK293T)) (UniProt Q92597); test: pull-down; GST-fused full-length NDRG1 on glutathione beads incubated with in vitro translated PCNA in RIPA buffer for 12 hr; western blot; only the target purified

Row | binding [1] | binding [2] | Substance
1 | binds |  | PCNA from pcDNA3.1-PCNA, transfected in HEK293T cells (from UniProt P12004 1-261)
2 |  | binds | in vitro translated PCNA (from UniProt P12004 1-261)
